Experimental data: PubChem BioAssay AID652272 (Drosophila RNAi Screening Center, 2013)
In all, the deposit lists about 21,000 reagents; below is a random part of those with a known target gene and a result. Over the whole deposit, 503 (2.4%) were called active. 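Raw plate light values, not normalised; calls rest on replicate z-scores that were not deposited; hits include reporter decreases as well as increases.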 A plus sign joins genes that one reagent is predicted to hit. The record does not give: the amount of reagent, the time to read-out.

Assay: 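Genes whose knock-down decreases or increases Hedgehog reporter output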 (primary screen)
Cells: Drosophila clone 8 (Cl8) cells
Reagent: long dsRNA against Drosophila genes
Read-out: 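Firefly light from a Hedgehog-responsive ptc promoter reporter and Renilla reference light, both read on a plate reader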
Direction: firefly Hh reporter signal: higher = more ptc reporter light; Renilla reference signal: higher = more Renilla control light
Rule for the call: 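Called a hit if the two-replicate mean z-score lies below -2 or above +3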
Meaning of the calls: active = hit: reporter lowered or raised; inactive = not a hit

predicted target,DRSC id,"firefly Hh reporter signal, replicate 1","firefly Hh reporter signal, replicate 2","firefly Hh reporter signal, replicate 3","Renilla reference signal, replicate 1","Renilla reference signal, replicate 2",call
Dlip3 (GeneID 53579),DRSC07401,1.31e5,47856,,3488,3575,inactive
CG14785 (GeneID 31094),DRSC18604,82045,96938,,2022,3168,inactive
CG10669 (GeneID 43069),DRSC14261,4.63e5,64129,,31160,1595,inactive
CG10345 (GeneID 42017),DRSC14138,1.02e5,91413,,4551,3619,inactive
Arl6 (GeneID 37236),DRSC07031,1.07e5,65488,,2249,4855,inactive
Pgi (GeneID 35886),DRSC07507,78556,38032,,2976,1780,inactive
CG4053 (GeneID 42070),DRSC15538,86130,1.85e5,,2306,5218,inactive
Atg7 (GeneID 37141),DRSC05741,1.37e5,1.64e5,,3746,7158,inactive
Atg7 (GeneID 37141),DRSC06937,1.04e5,54505,,2880,3799,inactive
LManIII (GeneID 34203),DRSC03221,78099,38396,,2067,3844,inactive
Pgm2b (GeneID 36649),DRSC05978,1.22e5,85029,,5446,3126,inactive
pan (GeneID 43769),DRSC17176,61064,57457,,1933,1894,inactive
CG30432 (GeneID 246611),DRSC04833,1.68e5,2.11e5,,4123,9975,inactive
CR43999 (retired record) (GeneID 14462515),DRSC14605,5.73e5,1.31e5,,30474,4217,inactive
ATPsynD (GeneID 42291),DRSC14093,5.31e5,69553,,25693,1639,inactive
CG14840 (GeneID 41734),DRSC14964,82112,1.05e5,,678,2246,inactive
CG5267 (GeneID 36875),DRSC06928,1.15e5,34216,,3051,2288,inactive
CG10031 (GeneID 33594),DRSC00286,1.80e5,58288,,4689,6458,inactive
Nup44A (GeneID 35762),DRSC07248,50365,50673,,2048,2002,inactive
Polr2F (GeneID 48312),DRSC12366,72825,95363,,2260,2154,inactive
CG10055 (GeneID 40862),DRSC12503,68530,96208,,2800,2748,inactive
Ggamma30A (GeneID 45234),DRSC02715,78608,48192,,2472,4387,inactive
Ggamma30A (GeneID 45234),DRSC03331,83796,44931,,2933,4699,inactive
CG13931 (GeneID 38212),DRSC08400,69033,35674,,2640,2507,inactive
DEF8 (GeneID 39381),DRSC09840,1.30e5,61265,,4706,2672,inactive
mora (GeneID 42874),DRSC16594,4.89e5,79084,,26589,2592,inactive
CG11570 (GeneID 39357),DRSC09844,41265,48256,45906,4677,3446,inactive
Proc-R (GeneID 31408),DRSC18410,60041,1.66e5,,1509,6535,inactive
tsr (GeneID 37841),DRSC04718,83814,84296,,1658,6605,inactive
FLASH (GeneID 36455),DRSC06872,5.39e5,97305,,4820,4820,inactive
pch2 (GeneID 41013),DRSC14368,54436,80624,,1830,2180,inactive
jbug (GeneID 43997),DRSC03952,1.24e5,2.53e5,,3360,11693,inactive
jbug (GeneID 43997),DRSC04114,79629,48701,,3436,1794,inactive
jbug (GeneID 43997),DRSC04167,1.04e5,81632,,2114,7049,inactive
jbug (GeneID 43997),DRSC04388,83405,67373,,2019,5244,inactive
cerv (GeneID 32492),DRSC19681,45040,2.49e5,,1597,9616,inactive
alphaTub84D (GeneID 40904),DRSC12623,51472,57776,,1564,1932,inactive

Quoted from the listing (6 entries):
predicted target,DRSC id,"firefly Hh reporter signal, replicate 1","firefly Hh reporter signal, replicate 2","firefly Hh reporter signal, replicate 3","Renilla reference signal, replicate 1","Renilla reference signal, replicate 2",call
CG10055 (GeneID 40862),DRSC12503,68530,96208,,2800,2748,inactive
Ggamma30A (GeneID 45234),DRSC02715,78608,48192,,2472,4387,inactive
Ggamma30A (GeneID 45234),DRSC03331,83796,44931,,2933,4699,inactive
CG13931 (GeneID 38212),DRSC08400,69033,35674,,2640,2507,inactive
DEF8 (GeneID 39381),DRSC09840,1.30e5,61265,,4706,2672,inactive
mora (GeneID 42874),DRSC16594,4.89e5,79084,,26589,2592,inactive

The listing continues:
predicted target,DRSC id,"firefly Hh reporter signal, replicate 1","firefly Hh reporter signal, replicate 2","firefly Hh reporter signal, replicate 3","Renilla reference signal, replicate 1","Renilla reference signal, replicate 2",call
CG14450 (GeneID 40490),DRSC11707,68757,88915,,1986,2278,inactive
vkg (GeneID 33726),DRSC03632,1.07e5,57568,,2482,5764,inactive
CG42553 (GeneID 38094),DRSC08356,88377,41607,,2800,3290,inactive
CG43386 (GeneID 31929),DRSC17980,62819,1.29e5,,1843,5365,inactive
VhaSFD (GeneID 34997),DRSC03471,59628,42416,,2660,2114,inactive
mei-9 (GeneID 31373),DRSC18792,75990,1.68e5,,2512,4946,inactive
CG7791 (GeneID 35511),DRSC04891,71398,63748,,2866,2384,inactive
CG46301 (GeneID 34829),DRSC01916,1.79e5,7.20e5,71155,4602,42720,inactive
CG10097 + CG10096,DRSC14189,1.06e5,92785,,4523,3792,inactive
CG10097 + CG10096,DRSC14190,67952,1.35e5,,2599,3175,inactive
Bili (GeneID 43019),DRSC14405,78848,50555,,2890,1896,inactive
puc (GeneID 40958),DRSC17034,78139,94730,,3660,3392,inactive
apolpp (GeneID 43827),DRSC17216,56997,90281,,1269,2635,inactive
Tsr1 (GeneID 40360),DRSC11821,77355,45874,,3397,1177,inactive
bys (GeneID 31701),DRSC18748,71240,67512,,2252,2199,inactive
CG14641 (GeneID 40529),DRSC12227,1.00e5,61971,,6216,3671,active
Rab27 (GeneID 31103),DRSC18567,98893,1.01e5,,2731,2620,inactive
pon (GeneID 31394),DRSC18823,71168,1.88e5,,2361,6978,inactive
Or9a (GeneID 31975),DRSC18692,86134,1.72e5,,2699,6200,inactive
CG14551 (GeneID 43171),DRSC14894,5.36e5,1.22e5,,27424,4012,inactive
aos (GeneID 39833),DRSC11323,97241,,,5028,2807,inactive
CG13712 (GeneID 38574),DRSC08321,86357,80736,,7457,5641,inactive
Sirt2 (GeneID 42414),DRSC15714,4.98e5,79461,,25520,2032,inactive
Rtnl2 (GeneID 40903),DRSC12609,1.00e5,1.84e5,,2104,5137,inactive
Ugt37A2 (GeneID 41573),DRSC15861,1.86e5,1.85e5,,6763,3388,inactive
Nct (GeneID 42964),DRSC16172,1.22e5,55581,,4864,2512,inactive
CG8891 (GeneID 33718),DRSC03120,1.37e5,66659,,3469,5688,inactive
CG14564 (GeneID 40425),DRSC11725,1.59e5,1.45e5,,4881,7701,inactive
Lip2 (GeneID 43980),DRSC02577,97259,43424,,2592,4497,inactive
Lip2 (GeneID 43980),DRSC02578,1.58e5,37080,,3875,5722,inactive
SPE (GeneID 42791),DRSC15135,1.22e5,78260,,5149,3606,inactive
Cdk1 (GeneID 34411),DRSC03504,77003,39517,,3048,2039,inactive
CG2906 (GeneID 35753),DRSC06841,95634,58386,,2388,5078,inactive
slx1 (GeneID 40578),DRSC12290,78384,86940,,3078,2442,inactive
nkt (GeneID 39264),DRSC10144,59866,53297,77005,5417,5746,inactive
CG6204 (GeneID 42877),DRSC15991,1.16e5,1.09e5,,4924,3971,inactive
